Laboratory results: PubChem BioAssay AID1487 (National Center for Advancing Translational Sciences (NCATS), 2009)
Where “and” joins values, the source holds several entries; their conditions need not be identical. Identical values can stand only once. This is one part of the list. Further columns of the screen follow, without active or inactive calls. Compounds called inactive in the main read-out are mostly missing here. Words in brackets tell the shape of the fitted curve; partial curves, single points and poor fits give uncertain potencies.

Experiment: qHTS Assay for Modulators of Lamin A Splicing
Conditions: HeLa LMNA splicing GFP/RFP minigene ratio, 48 h
Method in brief: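 S3 HeLa stable clones carrying a lamin A-EGFP splicing minigene plus DsRed2 were seeded at 600 cells/well in Opti-MEM with 2% FBS, pin-dosed and incubated 48 h at 37°C. Acumen cytometry (488 nm) gave the GFP/RFP total-intensity ratio.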

[1] = measured here: GFP splicing reporter channel
[2] = measured here: RFP viability control channel

Row | SMILES | AC50 [1] | AC50 [2]
1 | CCN1C[C@]2(C)CC[C@H](O)[C@@]34[C@@H]5CC6[C@@H](OC)C[C@@](O)([C@@H]5[C@@H]6O)[C@H](C[C@@H]23)[C@H]14 | 3.16 µM [falling, single point] | 3.16 µM [falling, single point]
2 | CCCOc1ccccc1C1SCC(=O)Nc2c1c(=O)[nH]n2C(C)CCC (stereo not drawn) | 35.5 µM [rising, single point] | –
3 | CCCCCCCCCCCCCC(=O)O[C@@H]1[C@@H](C)[C@@]2(O)[C@@H](C=C(CO)C[C@@]3(O)C(=O)C(C)=C[C@@H]23)C2C(C)(C)[C@@]21OC(C)=O (stereo partly drawn) | 35.5 µM [falling, partial curve, poor fit] | 35.5 µM [falling, partial curve]
4 | CN1OC[C@@H]2COc3ccc4ccccc4c3[C@@H]21 | 0.0501 µM [rising, full curve] | –
5 | CCOC(=O)c1ccc(N2CCN(c3ccccc3F)CC2)c(NC(=O)Nc2ccc(Cl)c(Cl)c2)c1 | – | 5.62 µM [rising, full curve]
6 | C=CCN1C(=O)NC(=O)/C(=C/c2ccc(N(C)C)c(Br)c2)C1=O | – | 0.00501 µM [falling, full curve, poor fit]
7 | CCn1cc(CN(C)S(=O)(=O)c2ccc3ccccc3c2)c(C)n1 | 4.47 µM [rising, partial curve, poor fit] | 3.98 µM [rising, full curve]
8 | NC(N)=NS(=O)(=O)c1ccc(N)cc1 | – | 0.0178 µM [rising, full curve, poor fit]
9 | CC1OC(O[C@H]2C[C@@H](O)[C@]3(CO)[C@@H]4C(CC[C@]3(O)C2)[C@@]2(O)CC[C@H](C3=CC(=O)OC3)[C@@]2(C)C[C@H]4O)C(O)C(O)C1O (stereo partly drawn) | 10 µM [falling, partial curve, poor fit] | 0.0316 µM [rising, full curve, poor fit]
10 | C/C=C1\C[N@@+]2(C)CC[C@@]34C(=C(C=O)[C@H]1C[C@H]32)Nc1ccccc14 | 14.1 µM [falling, single point] | –
11 | NC(=O)CN1CCCC1=O | 12.6 µM [falling, single point] | –
12 | O=[N+]([O-])OC1CO[C@H]2C(O[N+](=O)[O-])COC12 (stereo partly drawn) | 0.0282 µM [falling, full curve, poor fit] | –
13 | OC(Cn1cncn1)(Cn1cncn1)c1ccc(F)cc1F | 17.8 µM [falling, single point] | 0.501 µM [falling, single point]
14 | CC(C)NC(C)C | 17.8 µM [rising, single point] | –
15 | Cc1cc(OCc2cc(C(=O)O)oc2C)c2c3c(c(=O)oc2c1)CCCC3 | – | 3.98 µM [rising, full curve, poor fit]
16 | CCCCCCCSc1cc(OC)c(CCN(C)C)cc1OC | 17.8 µM [falling, single point] | 20 µM [falling, partial curve]
17 | O=C(Cc1ccccc1)N1CCN(C/C=C/c2ccccc2)CC1 | – | 15.8 µM [rising, single point]
18 | O=C(Nc1ccc(Cl)cc1)Nc1ccc(Cl)c(Cl)c1 | 22.4 µM [rising, partial curve, poor fit] | 11.2 µM [rising, partial curve, poor fit]
19 | C=CCN1CCC2(C)c3cc(O)ccc3CC1C2C (stereo not drawn) | – | 5.62 µM [falling, single point]
20 | CC(=O)NBr | 2.82 µM [rising, single point] | 6.31 µM [falling, partial curve, poor fit]
21 | CC(=O)Oc1c2c(c(CC=C(C)C)c3c1C(=O)C1=CC4CC5C(C)(C)OC(C/C=C(\C)C(=O)O)(C4=O)[C@]15O3)OC(C)(CCC=C(C)C)C=C2 (stereo partly drawn) | 2.24 µM [falling, full curve] | 1.26 µM [falling, full curve]
22 | C=Cn1ccnc1P(=S)(c1nccn1C=C)c1nccn1C=C | – | 0.00891 µM [falling, full curve, poor fit]
23 | CCCOC(=O)c1ccccc1 | – | 0.0355 µM [rising, full curve, poor fit]
24 | CC(CCC(=O)O)C1CCC2C3C(=O)C[C@@H]4CC(=O)CC[C@@]4(C)C3CC(=O)[C@]12C (stereo partly drawn) | 1 µM [falling, full curve, poor fit] | 22.4 µM [falling, single point]
25 | Cc1cccc(C(=O)Nc2ccc(C(=O)OCc3cc(=O)n4nc(C5CC5)sc4n3)cc2)c1 | – | 0.891 µM [rising, full curve, poor fit]
26 | COC(=O)C(O)(c1ccc(NC(=S)NC(=O)c2ccccc2)cc1)C(F)(F)F (stereo not drawn) | 10 µM [rising, partial curve] | 15.8 µM [rising, single point]

Row | SMILES | AC50 [1] | AC50 [2]
27 | Cc1nc2ccccc2c(=O)n1-c1ccccn1 | 14.1 µM [rising, single point] | –
28 | CCCCn1c(=O)c(C(=O)Nc2ccccc2S(N)(=O)=O)c(O)c2ccccc21 | – | 35.5 µM [rising, single point]
29 | COc1ccc(CNS(=O)(=O)c2cc3c(cc2C)N(C)CCO3)cc1 | 0.00501 µM [falling, full curve, poor fit] | 0.00316 µM [falling, full curve, poor fit]
30 | CC(=O)Oc1ccccc1C(=O)Nc1ncc([N+](=O)[O-])s1 | 22.4 µM [rising, single point] | 8.91 µM [rising, partial curve]
31 | Cc1[nH]ccc2c1[nH]c1cc(=O)ccc12 | 0.141 µM [falling, single point] | 63.1 nM [falling, full curve, poor fit] and 7.94 nM [falling, full curve, poor fit]
32 | c1ccc(C2OCCN3CCCCC23)cc1 (stereo not drawn) | 0.00501 µM [falling, full curve] | –
33 | Cc1cc2ccccc2c(=O)n1CC(=O)NCC(=O)N1CCC2(CC1)OCCO2 | – | 1.78 µM [falling, partial curve, poor fit]
34 | O=C(O)COc1ccccc1 | 7.94 µM [falling, single point] | –
35 | CC(=O)c1cccc(NC(=O)c2cccn(Cc3cccc(C)c3)c2=O)c1 | – | 8.91 µM [falling, partial curve]
36 | Oc1c(Cl)cc(Cl)cc1CN1CCN(Cc2ccccc2)CC1 | 35.5 µM [rising, single point] | 35.5 µM [rising, single point]
37 | Nc1c2c(nc3sc4c(c13)CCCCC4)CCCC2 | 15.8 µM [rising, partial curve, poor fit] | 20 µM [rising, partial curve, poor fit]
38 | O=C1NC(=O)N(c2ccccc2)C(=O)/C1=C/c1ccc([N+](=O)[O-])s1 | 25.1 µM [falling, single point] | –
39 | C=CCn1c(O)c(C(CC)=Nc2ccc(N(CC)CC)cc2)c(=O)[nH]c1=O | 22.4 µM [rising, single point] | 25.1 µM [rising, single point]
40 | S=C(NCCN1CCOCC1)Nc1cccc(Cl)c1 | 31.6 µM [rising, single point] | 35.5 µM [rising, single point]
41 | CN1C[C@H](C(=O)N[C@]2(C)O[C@]3(O)[C@H]4CCCN4C(=O)[C@H](Cc4ccccc4)N3C2=O)C[C@H]2c3cccc4[nH]cc(c34)C[C@@H]21 | 0.00708 µM [falling, full curve] | 0.00631 µM [falling, full curve, poor fit]
42 | Cc1c2ccncc2c(C)c2c1[nH]c1ccccc12 | 3.98 µM [falling, partial curve] and 6.31 µM [falling, full curve, poor fit] and 3.98 µM [falling, full curve, poor fit] | 7.94 µM [falling, partial curve] and 10 µM [falling, partial curve] and 11.2 µM [falling, partial curve, poor fit]
43 | CCn1nc(C)c(CN2CCCC(C(=O)c3cccc(OC(C)C)c3)C2)c1C (stereo not drawn) | – | 2.82 µM [falling, full curve, poor fit]
44 | CCOc1ccc(Cn2c(=O)oc3ccc(C)cc32)cc1OC | – | 11.2 µM [rising, partial curve]
45 | CCCCN1C2CCC1CC(OC(c1ccc(F)cc1)c1ccc(F)cc1)C2 (stereo not drawn) | 6.31 µM [falling, full curve, poor fit] | 35.5 µM [falling, single point]
46 | Cc1cc(NC(=O)c2noc3c2CCCCC3)no1 | – | 15.8 µM [rising, single point]
47 | CCCCC1(CCCC)C(=O)NC(=Nc2cccc(C)c2)NC1=O | 35.5 µM [falling, single point] | –
48 | O=c1oc2ccccc2c(O)c1Cc1c(O)c2ccccc2oc1=O | 0.0355 µM [falling, full curve, poor fit] | 0.0501 µM [falling, full curve, poor fit]
49 | CC(C)(C)NC(=S)/N=C(\N)N[N+](=O)[O-] | – | 0.00501 µM [falling, full curve, poor fit]
50 | Cc1onc(-c2ccccc2)c1C(=O)N1CCC2(CC1)OCCO2 | – | 0.1 µM [falling, single point]
51 | Cc1ccccc1N1C(=O)NC(=O)/C(=C\c2cc(C)n(C)c2C)C1=O | – | 15.8 µM [rising, single point]
